Measured values taken from patent publication US10053491 (dated 2018).
The star is where a group is joined. NHNH2 = NN*

Experiment: general procedure: Fmoc solid-phase peptide synthesis; resin for Fmoc solid-phase synthesis
Conditions: late stage modification step

Work on Ac-LYRAA-NHNH2 yielded a step yield of 63% and a step yield (isolation yield) of 80%.
